Laboratory results published in PubChem BioAssay AID1688 (National Center for Advancing Translational Sciences (NCATS), 2009).
About 2,400 (1.1%) of roughly 220,000 compounds were called active. Inconclusive means that the source gave no clear call. Such entries were picked first, then a sample of the others. Calls come from the whole dose curve; as a rule, active = well fitted inhibition curve with a large enough effect; inconclusive = small, poorly fitted or top-dose-only effect, or effect the other way; inactive = no such curve, though single readings can be large or run the other way. Where the call is inconclusive, the potency comes from a doubtful curve fit.

Experiment: qHTS Multiplex Assay to Identify Dual Action Probes in a Cell Model of Huntington: Aggregate Formation (GFP); note: nearly all actives have a fitted effect of over 60% in size
Conditions: PC12 HttQ103-GFP aggregates, Acumen cytometry, 40 h; activity change, negative = inhibition: at 46.1 µM (top of the series) unless noted
Outline: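 PC12 cells stably carrying ecdysone-inducible HTT exon 1 Q103–GFP were induced with tebufenozide (100 nM final) and treated with library compounds in titration. GFP aggregates in lysates were counted by laser scanning cytometry.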
% is set by controls: 0 for no effect and ±100 for the full control effect; potency is the fitted concentration of half-maximal effect.

Compound	Potency	activity change, negative = inhibition
CCOC(=O)c1sc2nc(CSc3ccccc3)nc(N3CCC(C(N)=O)CC3)c2c1C	inactive	–
O=C(NNc1c(Cl)cc(Cl)cc1Cl)c1cccc([N+](=O)[O-])c1	inconclusive: 10 µM [inhibitor, partial curve]	–
Fc1cccc(Cl)c1-c1nnc2ccc3ccccc3n12	inconclusive: 8.91 µM [inhibitor, partial curve, poor fit]	–
CC(C)(C)n1ncc2c(=O)n(Cc3ccc(Cl)cc3Cl)cnc21	inconclusive: 35.5 µM [inhibitor, single point]	–
COc1ccc(OCCSc2nc(N)cc(=O)[nH]2)cc1	–	inactive: 43.4% [at 9.22 µM]
CCOC(=O)N1CCC(N2C(=O)c3ccccc3C2Nc2cc(Cl)c(OC)cc2OC)CC1 (stereo unspecified)	inconclusive: 12.6 µM [activator, single point]	–
CC(=O)C1=C(c2ccccc2)OC(N)=C(C#N)C1c1ccccc1C (stereo unspecified)	inconclusive: 1 µM [inhibitor, single point]	–
O=C(O)CCCCCN1C(=O)/C(=C\c2ccncc2)SC1=S	inactive	–
COc1cc(/C=N/Nc2cccc(C)c2)ccc1OC(=O)c1cccs1	inconclusive: 35.5 µM [activator, single point]	–
COC(=O)c1ccc(CSc2cc(C)c3ccccc3n2)o1	inconclusive: 12.6 µM [activator, single point]	–
COC(=O)c1ccccc1NC(=O)Cc1nc(-c2ccccc2)sc1-c1ccc(C)cc1	inconclusive: 20 µM [inhibitor, partial curve]	–
O=C(NCC1CCCO1)NC1CCCCC1 (stereo unspecified)	inconclusive: 0.562 µM [activator, partial curve, poor fit]	–
COc1ccc(C(=O)Nc2nc3ccccc3[nH]2)cc1OC	inactive	–
COc1cc(-c2nc(S(=O)(=O)c3ccc(Cl)cc3)c(N(C)C)o2)cc(OC)c1OC	inconclusive: 20 µM [inhibitor, partial curve]	–
CCOC(=O)c1c(-c2ccc(C)cc2)csc1NC(=O)c1ccc(N2C(=O)CCC2=O)cc1	inactive	–
Cc1cc(C)cc(OC(=O)C23CCC(C)(C(=O)O2)C3(C)C)c1 (stereo unspecified)	inconclusive: 1.26 µM [inhibitor, single point]	–
C=CCCC(=O)Nc1nc(C)c(-c2csc(Nc3ccccc3OC)n2)s1	active: 17.8 µM	–
COc1ccc(S(=O)(=O)Nc2ccc(C)cc2)cc1N(C)S(=O)(=O)c1ccc(Cl)cc1	inconclusive: 8.91 µM [inhibitor, partial curve]	–
Cn1c(Cn2nnc3ccccc32)nnc1SCC(=O)N1c2ccccc2Sc2ccccc21	inconclusive: 15.8 µM [inhibitor, single point]	–
CCCCNC(=O)N1CCOCCOCCN(C(=O)NCCCC)CCOCCOCC1	inconclusive: 0.708 µM [activator, single point]	–
Fc1ccccc1N=C1NN=C(c2ccccc2)CS1	inconclusive: 35.5 µM [inhibitor, single point]	–
COc1ccc(OC)c(/C=C2\S/C(=N/NC(=O)c3ccc4ccccc4c3)NC2=O)c1	inconclusive: 12.6 µM [inhibitor, single point]	–
OCCN1CCN(c2ncnc3ccc(Br)cc23)CC1	active: 4.47 µM	–
O=C(O)c1ccccc1COc1ccccc1Cl	inconclusive: 0.562 µM [inhibitor, full curve, poor fit]	–

Compound	Potency	activity change, negative = inhibition
[S-]C(=Nc1ccc(Cl)cc1)N[n+]1ccccc1	inactive	–
O=C(Cn1ncc2c(=O)oc3ccccc3c21)NCCN1CCN(c2ccccc2F)CC1	inconclusive: 22.4 µM [activator, single point]	–
CCC(C(=O)OCn1nnc2ccccc2c1=O)c1ccccc1 (stereo unspecified)	inactive	–
COCCn1c(C)cc(C(=O)CSc2nc3ccccc3c(=O)n2Cc2ccco2)c1C	inconclusive: 12.6 µM [inhibitor, partial curve]	–
COc1cc(/C=C(\C#N)C(=O)NC2CCCCC2C)ccc1OS(=O)(=O)c1ccc(C)cc1 (stereo unspecified)	inconclusive: 35.5 µM [inhibitor, single point]	–
O=[N+]([O-])c1ccc2c(c1)[nH]c(=S)n2-c1ccccc1	inactive	–
O=c1cc(CN2CCC3(CC2)OCCO3)c2c(ccc3ccccc32)o1	inconclusive: 35.5 µM [inhibitor, single point]	–
Cc1cccc(N2CCN(C(=O)Cc3ccc(Br)cc3)CC2)c1C	inconclusive: 35.5 µM [inhibitor, single point]	–
C=C1C(CCl)(CCl)C2(Cl)C(Cl)C(Cl)C1(Cl)C2(Cl)Cl (stereo unspecified)	inactive	–
N#CC1=C(N)NC(SCC(=O)Nc2ccc(Br)cc2)=C(C#N)C12CCCCC2	inconclusive: 17.8 µM [inhibitor, single point]	–
Cc1ccc(-c2cc(C(=O)Nc3ccc(S(=O)(=O)Nc4nc(C)cc(C)n4)cc3)c3ccccc3n2)cc1	inconclusive: 35.5 µM [inhibitor, single point]	–
CC(C)(C)c1nnc(N/N=C/c2ccccc2O)n(N)c1=O	inconclusive: 1.58 µM [inhibitor, full curve, poor fit]	–
O=C(Nc1nnc(-c2cccs2)o1)c1cccc(C(F)(F)F)c1	inconclusive: 10 µM [inhibitor, partial curve]	–
CSc1cccc(CN2CCN(CCC(C)C)C(CCO)C2)c1 (stereo unspecified)	inactive	–
Cc1cc2cc(NC(=O)c3ccco3)ccc2[nH]1	inactive	–
CC(NC(=O)/C=C/c1ccco1)c1nc2ccccc2n1Cc1ccccc1F (stereo unspecified)	inconclusive: 35.5 µM [activator, single point]	–
CC(C)=NNC(=O)C1=NNC(=O)C1	–	inactive: 15.5% [at 9.22 µM]
O=C(CCNc1cccc(F)c1)c1cc2ccccc2o1	inconclusive: 35.5 µM [inhibitor, single point]	–
CC1CCC(C(C)C)C(OCC(O)CNC(C)C)C1 (stereo unspecified)	–	inactive: -19.7% [at 9.22 µM]
Cc1cccc(NC(c2ccc(C)s2)c2ccc3ccc(C)nc3c2O)n1 (stereo unspecified)	inconclusive: 35.5 µM [inhibitor, single point]	–
COc1ccc(C(=O)COC(=O)CN2C(=O)C3C4C=CC(C5CC45)C3C2=O)cc1 (stereo unspecified)	inactive	–
Cc1nc(NS(=O)(=O)c2ccc(Br)cc2)c2c3c(sc2n1)CCC3	inconclusive: 35.5 µM [inhibitor, single point]	–
COc1ccc(C(=O)CSc2nnc(-c3ccc(S(=O)(=O)N4CCOCC4)cc3)o2)cc1	inactive	–
CCOCc1[nH]c(=S)[nH]c(=O)c1Cc1ccc(OCC)cc1	inconclusive: 5.62 µM [inhibitor, single point]	–

Record cards, as listed above. Values in the order: Potency | activity change, negative = inhibition
CC(C)=NNC(=O)C1=NNC(=O)C1 is listed with – | inactive: 15.5% [at 9.22 µM]
O=[N+]([O-])c1ccc2c(c1)[nH]c(=S)n2-c1ccccc1 is listed with inactive | –
O=c1cc(CN2CCC3(CC2)OCCO3)c2c(ccc3ccccc32)o1 is listed with inconclusive: 35.5 µM [inhibitor, single point] | –

Further records.

Compound	Potency	activity change, negative = inhibition
COc1cc2c(cc1OC)CN(C(=S)Nc1ccc(OC(F)F)cc1)CC2	inconclusive: 20 µM [inhibitor, partial curve, poor fit]	–
OC(CNCc1ccco1)Cn1c2ccccc2c2ccccc21 (stereo unspecified)	inactive	–
CCOc1ccc(NS(=O)(=O)c2cnc(Cl)c(Cl)c2)cc1	inactive	–
COc1ccc(-n2cc(-c3ccccc3)c3c(N4CCOCC4)ncnc32)cc1	inconclusive: 35.5 µM [inhibitor, single point]	–
O=C(CCl)Nc1cccc(Oc2ccccc2)c1	inconclusive: 14.1 µM [inhibitor, single point]	–
O=C(CCN1Cc2ccccc2C1)c1ccc2c(c1)OCCO2	inconclusive: 25.1 µM [inhibitor, single point]	–
CC(=O)Nc1sc2c(c1-c1nc3ccccc3s1)CCN(C(C)C)C2	inconclusive: 3.55 µM [inhibitor, single point]	–
Cc1c(NC(=O)COC(=O)c2c3c(nc4ccccc24)CCCC3)c(=O)n(-c2ccccc2)n1C	inconclusive: 5.62 µM [inhibitor, single point]	–
CC1Cc2ccccc2N1C(=O)Cn1c(=O)oc2cc(S(=O)(=O)NC3CCCC3)ccc21 (stereo unspecified)	inactive	–
CN(Cc1ccc(-n2cccn2)cc1)C(=O)c1cnn2c1NC(c1ccco1)CC2C(F)(F)F (stereo unspecified)	inconclusive: 14.1 µM [inhibitor, partial curve]	–
O=[N+]([O-])c1cc(/C=N/N/C(=N/c2ccccn2)c2ccccn2)ccc1O	inconclusive: 35.5 µM [inhibitor, single point]	–
Cc1ccc(N2C(=O)CC3(CC4C=CC3C4)C2=O)cc1 (stereo unspecified)	inactive	–
Nc1nc(CSc2n[nH]c(-c3ccccc3)n2)nc(Nc2ccccc2)n1	inactive	–
Cc1c(NS(=O)(=O)c2ccc3c(c2)OCCO3)cccc1-c1nc2cccnc2s1	active: 8.91 µM	–
C/C(=C\C(=O)c1ccccc1)Nc1ccc(N2CCOCC2)cc1	inactive	–
COc1cc(N=Nc2cccc(S(N)(=O)=O)c2)c2ccccc2c1N	–	inactive: 9.64% [at 9.22 µM]
COCCN(C(=O)CNC(=O)c1cccs1)C(C(=O)NC1CCCCC1)c1ccco1 (stereo unspecified)	inactive	–
CCn1c(=O)c(C(=O)NC(C)C)c(O)c2ccccc21	inconclusive: 14.1 µM [inhibitor, single point]	–
Clc1ccc2[nH]c3c(NCCCN4CCOCC4)ncnc3c2c1	inconclusive: 15.8 µM [inhibitor, single point]	–
CC1(C)CC(N=Cc2c(O)n(Cc3ccc4c(c3)OCO4)c(=O)c3ccccc23)CC(C)(C)N1	inconclusive: 12.6 µM [inhibitor, single point]	–
Cc1cc(C)n(-c2nc3ccccc3nc2N2CCN(C(=O)c3ccc(F)cc3)CC2)n1	inconclusive: 1.58 µM [inhibitor, full curve]	–
O=C(CSc1ccc(Br)cc1)N1CCN(C(=O)c2ccco2)CC1	inactive	–
CCN(CC)c1ccc(S(=O)(=O)N(CC)CC)cc1NC(=O)C1CCCC1	inconclusive: 35.5 µM [inhibitor, single point]	–
